Experimental data from PMC10082759, “Shieldin complex assembly kinetics and DNA binding by SHLD3” (Communications Biology, 2022).
Results are given in words; binding and its absence hold for the method and conditions named. Some entries that bind do so weakly or less than the wild type.

Amino acid sequences for entries named in this document (tags omitted). A change or cut given only in a name is not applied to a line headed by its entry.
UniProt Q9UI95: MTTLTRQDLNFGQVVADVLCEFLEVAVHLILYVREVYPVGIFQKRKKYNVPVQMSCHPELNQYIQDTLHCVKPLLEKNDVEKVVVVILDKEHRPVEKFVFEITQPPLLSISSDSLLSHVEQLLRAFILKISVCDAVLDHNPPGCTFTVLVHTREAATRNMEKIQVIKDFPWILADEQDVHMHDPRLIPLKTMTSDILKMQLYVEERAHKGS

Columns and labels:
[1] = biological target: T1, full-length SHLD3 (human) (UniProt Q6ZNX1); assay: co-purification; co-expressed in Hi5 insect cells with GST fused to SHLD2; purified as a complex, tag cleaved with PreScission, cation exchange (Resource-S) and SEC
T1 sequence: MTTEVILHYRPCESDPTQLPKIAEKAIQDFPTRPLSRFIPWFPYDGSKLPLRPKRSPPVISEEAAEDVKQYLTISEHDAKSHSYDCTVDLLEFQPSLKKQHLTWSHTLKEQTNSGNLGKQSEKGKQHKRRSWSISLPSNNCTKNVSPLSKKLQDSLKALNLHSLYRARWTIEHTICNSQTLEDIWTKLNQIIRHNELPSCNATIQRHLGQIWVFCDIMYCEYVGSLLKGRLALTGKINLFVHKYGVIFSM

REV7^R124A (human) = REV7^R124A (human) (UniProt Q9UI95); assay: SEC; REV7 dimerization: 20 µM REV7 or MBP-REV7 constructs on Superdex-200 3.2/300 in buffer B; both purified

Row | Substance | binding [1] | binding (REV7^R124A (human))
1 | REV7 (of the insect-cell Shieldin complex) (from UniProt Q9UI95 1-211) | binds | –
2 | REV7^R124A (from UniProt Q9UI95 1-211) | – | no binding (tested: 20 µM)
3 | REV7^R124A (of the insect-cell Shieldin complex) (from UniProt Q9UI95 1-211) | binds | –
